Results from PubChem BioAssay AID2685 (National Center for Advancing Translational Sciences (NCATS), 2010).
This is one part of the list. Further columns of the screen follow, without active or inactive calls. Compounds called inactive in the main read-out are mostly missing here. The note in brackets gives the kind of curve behind each potency; many fits are weak.

Test: qHTS Assay for Lipid Storage Modulators in Drosophila S3 Cells;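 as to cell number change: cells counted by Cell Tracker Red CMTPX staining in the red channel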
Settings: BODIPY lipid droplet fluorescence, 18-24 h; for cell number change: measured here: cell count max response, cells fed with added oleic acid
How it was run: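 Drosophila S3 cells loaded with oleic acid (400 uM, as added) and compounds at several concentrations; lipid droplets imaged by 488-nm laser-scanning cytometry, 500–530 nm intensity and object ratio to cell channel. Percent activity normalized to 20 uM Triacsin C.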

[1] = measured here: lipid fluorescence (Fed channel) AC50, cells fed with added oleic acid
[2] = measured here: cell number channel AC50, cells fed with added oleic acid

| Structure (SMILES) | cell number change | AC50 [1] | AC50 [2] |
| --- | --- | --- | --- |
| CCCCNc1ccc(C(=O)OCCOCCOCCOCCOCCOCCOCCOCCOCCOC)cc1 | 16.7% | 29.1 µM [rising, single point] |  |
| Cc1cc(C)c(C)c(S(=O)(=O)NCc2ccc(C(=O)N3CCCC3)cc2)c1C | -27.1% | 29.1 µM [falling, single point] |  |
| CC(C)c1ccc(NC2CCCN(C(=O)c3cnn(C(C)C)c3)C2)cc1 (configuration not stated) | 20.5% |  |  |
| CCN(CC(=O)Nc1ccc(OC)cc1)C(=O)C1CCN(C(=O)c2ccc(Cl)cc2)CC1 | 1.43% | 6.51 µM [falling, single point] | 4.11 µM [falling, single point] |
| O=C(O)c1ccc(S(=O)(=O)c2ccc3c(c2)C(=O)N(c2ccccc2[N+](=O)[O-])C3=O)cc1 | 19.4% |  |  |
| O=S(=O)(Nc1ccc(S(=O)(=O)N2CCCC2)cc1)c1ccc(F)cc1 | -1.67% | 0.231 µM [falling, full curve] |  |
| Cc1ccc(-c2csc3nc(CSc4nnc(-c5ccc(Cl)cc5)n4C)[nH]c(=O)c23)cc1 |  |  | 6.51 µM [falling, partial curve, poor fit] |
| C=C1N(c2ccc(Cl)cc2)C(=O)OC1(C)C | -24.3% | 2.59 µM [falling, partial curve] |  |
| CCC(CC)NC(=O)c1ccc2nc[nH]c2c1 | 12.3% |  |  |
| O=C1CCC(C(=O)Nc2ccc([N+](=O)[O-])cc2)N1 (configuration not stated) | -26.8% | 0.082 µM [rising, full curve, poor fit] |  |
| COCc1c(C(=O)N2CCN(Cc3c(F)cccc3Cl)CC2)oc2ccccc12 | 30.6% | 0.82 µM [rising, full curve, poor fit] | 4.11 µM [rising, full curve, poor fit] |
| COc1ccc(NC(=O)c2nn(C)c3c2CS(=O)(=O)c2ccccc2-3)cc1 |  | 2.91 µM [rising, single point] | 1.64 µM [rising, partial curve, poor fit] |
| COc1ccc(C(CCNCc2ccc(N(C)C)cc2)c2ccccc2OC)cc1 (configuration not stated) | -6.31% | 29.1 µM [falling, single point] |  |
| CC(=O)Nc1cc2c(cc1Br)OCCO2 | -204% | 20.6 µM [falling, partial curve] | 20.6 µM [falling, partial curve] |
| CC1CC(C)CN(c2cc3c(cc2[N+](=O)[O-])C(=O)N(c2ccccc2)C3=O)C1 (configuration not stated) | -26.6% | 23.1 µM [falling, single point] |  |
| CCn1cnc2c1c(=O)n(CC(=O)NCC(F)(F)F)c(=O)n2Cc1ccccc1 | -16.8% | 4.11 µM [rising, single point] | 6.51 µM [rising, single point] |
| CCc1ccccc1N(CC(=O)N1CCCCC1)S(=O)(=O)c1ccccc1 | 11.3% |  |  |
| CCOC(=O)c1c(CN(C)C)n(-c2ccc(C)cc2)c2cc(Br)c(O)cc12 | 1.5% | 16.4 µM [rising, partial curve] |  |
| COc1ccccc1-c1cc(C(=O)Nc2cccnc2)no1 | -36.3% | 20.6 µM [falling, single point] | 20.6 µM [falling, single point] |
| CC(C)CCC(CC(C)O)c1n[nH]c(=S)n1-c1ccccc1 (configuration not stated) | -0.171% | 1.16 µM [falling, single point] | 0.82 µM [falling, full curve] |

An excerpt from above in order of formula weight, high to low:

| Structure (SMILES) | cell number change | AC50 [1] | AC50 [2] |
| --- | --- | --- | --- |
| CCn1cnc2c1c(=O)n(CC(=O)NCC(F)(F)F)c(=O)n2Cc1ccccc1 | -16.8% | 4.11 µM [rising, single point] | 6.51 µM [rising, single point] |
| COc1ccccc1-c1cc(C(=O)Nc2cccnc2)no1 | -36.3% | 20.6 µM [falling, single point] | 20.6 µM [falling, single point] |
| CC(=O)Nc1cc2c(cc1Br)OCCO2 | -204% | 20.6 µM [falling, partial curve] | 20.6 µM [falling, partial curve] |

The list goes on.

| Structure (SMILES) | cell number change | AC50 [1] | AC50 [2] |
| --- | --- | --- | --- |
| S=C(NCc1cccs1)Nc1ccc(Cl)cc1 | -22.1% | 23.1 µM [falling, partial curve, poor fit] |  |
| CN1/C(=C/C(=O)C2CC2)C(C)(C)c2ccccc21 | -21.6% | 0.00731 µM [falling, full curve, poor fit] |  |
| CC(=O)NCCc1ccc(C(=O)Cn2cnc3ccccc3c2=O)cc1 | 10.5% | 35.5 µM [falling, partial curve, poor fit] |  |
| COC(=O)c1ccc(N2CCN(C)CC2)c(NC(=O)c2cccs2)c1 | 20.5% | 6.51 µM [rising, single point] |  |
| Nn1c(Cc2ccc(Br)cc2)n[nH]c1=S | -24.5% |  | 3.66 µM [falling, single point] |
| C=CCC(NCc1ccccc1)c1ccc(OC)cc1 (configuration not stated) | -5.26% |  |  |
| FC(F)C(F)(F)C1=CC(c2ccccc2)=NCCN1 | -0.281% |  |  |
| COc1ccc(CCNc2ncnc3sc(C)cc23)cc1OC |  | 2.06 µM [falling, full curve] |  |
| CN1C=CC(=C2C(=O)c3ccccc3C2=O)C=C1 | 12.2% | 7.31 µM [falling, partial curve, poor fit] |  |
| COc1cccc(=O)c2c(C)n(CC(=O)c3ccccc3)c(C)c12 | -6.57% | 0.366 µM [falling, full curve, poor fit] |  |
| CCNC(=O)C1(c2ccccc2)CCCC1 | 6.11% | 0.092 µM [falling, full curve] |  |
| O=C(CSc1ccc(Br)cc1)NC1CCS(=O)(=O)C1 (configuration not stated) | -9.08% |  |  |
| CN(C)C(=O)COC(=O)/C=C/c1ccccc1[N+](=O)[O-] |  | 0.651 µM [falling, single point] | 0.116 µM [falling, full curve, poor fit] |
| O=C(CSc1nnc(-c2cnccn2)n1Cc1ccco1)c1ccccc1 | 21.3% | 0.00461 µM [falling, full curve, poor fit] |  |
| COc1ccc(C)cc1S(=O)(=O)Nc1cc2c3c(c1)CC(=O)N3CCC2 | 79.1% |  | 0.291 µM [rising, full curve] |
| Cc1ccc(O)c(C(CC(=O)NCc2cccnc2)c2ccccc2)c1 (configuration not stated) | 39.9% | 6.51 µM [falling, single point] | 0.731 µM [rising, full curve] |
| CCCCN(C(=O)NC(=O)C1=C(N2CCOCC2)/C(=C/c2ccccc2)CC1)S(C)(=O)=O | -27% | 0.92 µM [falling, full curve, poor fit] |  |
| CCOc1ccc(N2CC(C(=O)Nc3cccc(C(=O)NC4CC4)c3)CC2=O)cc1 (configuration not stated) | -28.1% |  | 0.0058 µM [falling, full curve, poor fit] |
| CCCc1cc(C(=O)N2CCCC(C(=O)c3ccc(Cl)cc3)C2)n(C)n1 (configuration not stated) | -19.8% | 2.31 µM [falling, full curve] |  |
| CCCCc1nc(C(N)=O)c2[nH]c(=O)n(-c3ccc(OC)cc3OC)c2n1 | -44.8% |  | 29.1 µM [falling, single point] |

| Structure (SMILES) | cell number change | AC50 [1] | AC50 [2] |
| --- | --- | --- | --- |
| Cc1cccn2c(=O)c(/C=C(\C#N)S(=O)(=O)c3ccccc3)c(N3CCC(C(N)=O)CC3)nc12 | 6.43% | 7.31 µM [falling, partial curve, poor fit] |  |
| Cc1cccc(N2C(=O)C(O)=C(C(=O)c3cccs3)C2c2ccc(Cl)cc2)n1 (configuration not stated) | 8.77% | 29.1 µM [rising, single point] |  |
| COc1ccc(CCNc2oc(COc3ccccc3)nc2C#N)cc1 | 4.63% | 0.92 µM [rising, partial curve, poor fit] |  |
| Cc1ccc(C(=O)NCC(=O)OCC(=O)NCCc2ccccc2)s1 | -4.4% | 29.1 µM [rising, single point] |  |
| O=C(Nc1ccn(Cc2c(F)c(F)cc(F)c2F)n1)c1ccc(COc2ccccc2Cl)cc1 | -22.6% | 29.1 µM [falling, single point] |  |
| CCOc1ccc(CN(C)C(=O)c2cccnc2SC)cc1OC | -4.88% |  |  |
| CCc1nc(SCC(=O)N2CCCC2)c2c(=O)n(C)c(=O)n(C)c2n1 | -33.1% | 5.17 µM [falling, partial curve] | 20.6 µM [falling, single point] |
| CC(C)N1CCc2c(sc(NC(=O)CCS(=O)(=O)c3ccccc3)c2C#N)C1 | -35.6% | 29.1 µM [falling, single point] | 32.6 µM [falling, single point] |
| CC(=O)Nc1ccc(S(=O)(=O)N2CCN(c3ccc(C)c(Cl)c3)CC2)cc1 | -49.2% | 8.2 µM [falling, partial curve] | 9.2 µM [falling, partial curve] |
| CCOC(=O)c1cnc2ccc(OCC)cc2c1NCc1cccnc1 | 48.9% | 8.2 µM [rising, partial curve] | 1.64 µM [rising, partial curve] |
| CC(=O)N1CCc2cc(S(=O)(=O)CCC(=O)NCc3ccco3)ccc21 | 28% | 4.11 µM [rising, full curve, poor fit] |  |
| CCOc1ccc(-c2noc(CCC(=O)NC3CCCC3)n2)cc1OC | -21.9% | 6.51 µM [rising, single point] |  |
| COC(=O)c1ccc(CSc2ccc3nnc(-c4ccccc4)n3n2)o1 |  |  | 6.51 µM [rising, single point] |
| Cc1c(CN(C)C)c2c(n1Cc1ccccc1)C(=O)c1ccc(Br)cc1-2 | -44.1% | 0.206 µM [rising, full curve, poor fit] | 0.731 µM [rising, single point] |
| CCOc1ccc(Nc2ccnc3cc(Cl)ccc23)cc1 | -15.1% | 6.51 µM [rising, single point] |  |
| Cc1cccc(C(=O)O)c1[N+](=O)[O-] | 3.5% | 11.6 µM [rising, single point] |  |
| COCCN1C(=O)C(O)=C(C(C)=O)C1c1ccc(OC)c(OC)c1 (configuration not stated) | -36.7% |  | 5.8 µM [falling, partial curve] |
| CN(C)CCn1c(=S)[nH]c2ncccc2c1=O | -22.8% | 32.6 µM [falling, single point] |  |
